Some of the results follow.
Experiments:
Assay in all cases: log2 fold change, soluble protein after heating vs DMSO (PISA); higher = thermal stabilisation; K562 cells, 10 uM, 30 min; active = over 0.2 and 3.5 SD of the protein, either way, in both replicates (recomputed)
[1] = compound: CS(=O)(=O)c1ccc(-c2cnc(N)c(C(=O)Nc3ccccc3)n2)cc1
Summary of the method: (§1)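 For each measurement, 10 μM compound was applied for 30 min to K562 cells at 2×10^6 cells/mL. Aliquots were heated for 3 min across 48°C-58°C, pooled, and extracted in PBS with 0.5% NP-40 at 4°C; the supernatant after 21,000xg for 90 min was soluble protein. This was quantified by TMTpro 16plex LC-MS/MS with channel sums equalised, and thermal stability was reported relative to control samples from duplicates, on a log2 fold-change scale.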

By UniProt entry, the sequences of proteins in these tests, tags left out. Where a name states a change or a piece, a line headed by the entry shows the natural chain unless it says otherwise.
UniProt Q8NI27: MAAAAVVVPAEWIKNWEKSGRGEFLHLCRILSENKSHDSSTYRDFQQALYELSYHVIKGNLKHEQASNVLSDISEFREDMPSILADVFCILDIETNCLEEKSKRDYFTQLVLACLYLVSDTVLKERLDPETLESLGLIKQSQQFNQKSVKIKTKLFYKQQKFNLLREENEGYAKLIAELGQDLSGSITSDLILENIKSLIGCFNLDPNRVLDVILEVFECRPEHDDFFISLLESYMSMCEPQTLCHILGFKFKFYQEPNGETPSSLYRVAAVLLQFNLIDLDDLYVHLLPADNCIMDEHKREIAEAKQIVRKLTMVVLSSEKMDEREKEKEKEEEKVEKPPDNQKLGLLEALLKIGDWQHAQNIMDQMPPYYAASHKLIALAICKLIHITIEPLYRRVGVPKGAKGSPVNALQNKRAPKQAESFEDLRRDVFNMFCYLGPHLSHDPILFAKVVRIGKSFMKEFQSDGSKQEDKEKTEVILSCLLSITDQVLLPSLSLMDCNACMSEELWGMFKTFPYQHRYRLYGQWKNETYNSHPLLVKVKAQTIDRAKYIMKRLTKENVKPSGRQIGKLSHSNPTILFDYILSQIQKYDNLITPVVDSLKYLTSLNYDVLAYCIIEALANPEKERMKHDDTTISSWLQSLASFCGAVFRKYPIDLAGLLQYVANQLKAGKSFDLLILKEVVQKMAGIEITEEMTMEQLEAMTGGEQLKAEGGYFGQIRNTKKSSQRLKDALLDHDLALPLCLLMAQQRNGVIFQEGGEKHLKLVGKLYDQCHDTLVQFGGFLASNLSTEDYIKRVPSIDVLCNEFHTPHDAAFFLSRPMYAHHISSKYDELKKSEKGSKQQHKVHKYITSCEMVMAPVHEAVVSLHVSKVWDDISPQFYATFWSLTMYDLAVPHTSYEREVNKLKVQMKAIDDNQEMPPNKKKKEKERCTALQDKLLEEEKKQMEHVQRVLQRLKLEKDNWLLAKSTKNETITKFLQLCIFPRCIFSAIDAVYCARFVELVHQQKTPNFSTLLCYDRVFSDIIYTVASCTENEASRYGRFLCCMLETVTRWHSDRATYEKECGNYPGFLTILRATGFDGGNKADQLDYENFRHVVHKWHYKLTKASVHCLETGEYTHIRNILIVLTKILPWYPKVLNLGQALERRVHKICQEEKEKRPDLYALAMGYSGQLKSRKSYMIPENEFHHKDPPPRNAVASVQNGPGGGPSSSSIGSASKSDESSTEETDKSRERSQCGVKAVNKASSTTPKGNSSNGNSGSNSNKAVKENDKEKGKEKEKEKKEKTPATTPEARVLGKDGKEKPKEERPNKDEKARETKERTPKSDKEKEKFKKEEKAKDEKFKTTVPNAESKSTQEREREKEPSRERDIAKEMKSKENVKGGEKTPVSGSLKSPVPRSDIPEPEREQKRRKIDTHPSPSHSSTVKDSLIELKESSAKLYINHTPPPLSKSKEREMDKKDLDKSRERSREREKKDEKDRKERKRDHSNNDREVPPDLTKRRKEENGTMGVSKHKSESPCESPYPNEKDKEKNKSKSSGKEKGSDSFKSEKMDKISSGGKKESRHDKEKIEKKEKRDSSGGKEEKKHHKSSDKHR
UniProt Q9Y5J7: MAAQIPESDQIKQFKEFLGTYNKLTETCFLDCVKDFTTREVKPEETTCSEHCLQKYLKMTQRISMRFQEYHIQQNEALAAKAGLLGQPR
UniProt Q96J01: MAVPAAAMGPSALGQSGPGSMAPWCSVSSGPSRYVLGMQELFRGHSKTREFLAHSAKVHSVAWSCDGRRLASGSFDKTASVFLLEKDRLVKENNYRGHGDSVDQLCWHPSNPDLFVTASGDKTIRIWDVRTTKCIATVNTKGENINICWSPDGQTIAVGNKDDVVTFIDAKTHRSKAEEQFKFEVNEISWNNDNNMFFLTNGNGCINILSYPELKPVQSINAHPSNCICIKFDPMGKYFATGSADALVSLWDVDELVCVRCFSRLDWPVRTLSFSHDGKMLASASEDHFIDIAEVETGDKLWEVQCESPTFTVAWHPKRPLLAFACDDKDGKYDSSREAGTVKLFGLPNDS
UniProt Q99595: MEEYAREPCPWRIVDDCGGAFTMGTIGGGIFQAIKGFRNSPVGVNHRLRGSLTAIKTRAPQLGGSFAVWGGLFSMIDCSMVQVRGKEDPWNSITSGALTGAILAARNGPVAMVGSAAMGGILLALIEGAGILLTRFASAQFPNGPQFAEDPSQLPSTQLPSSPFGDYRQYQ
UniProt O14925: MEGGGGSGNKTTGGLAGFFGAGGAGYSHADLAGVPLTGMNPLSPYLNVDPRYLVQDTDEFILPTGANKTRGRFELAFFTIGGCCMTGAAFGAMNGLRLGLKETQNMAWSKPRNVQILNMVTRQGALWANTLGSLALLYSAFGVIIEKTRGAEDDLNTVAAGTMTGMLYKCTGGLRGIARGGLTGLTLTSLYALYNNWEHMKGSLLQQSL
UniProt Q15814: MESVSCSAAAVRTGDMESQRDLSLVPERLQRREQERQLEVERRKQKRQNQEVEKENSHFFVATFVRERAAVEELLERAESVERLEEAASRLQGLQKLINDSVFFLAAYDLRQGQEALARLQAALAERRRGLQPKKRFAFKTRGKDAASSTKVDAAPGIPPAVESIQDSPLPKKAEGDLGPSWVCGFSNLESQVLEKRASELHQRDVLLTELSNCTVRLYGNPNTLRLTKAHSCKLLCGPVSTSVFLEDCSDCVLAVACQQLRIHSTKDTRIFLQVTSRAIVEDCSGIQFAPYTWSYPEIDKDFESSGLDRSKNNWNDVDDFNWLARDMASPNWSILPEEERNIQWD
UniProt Q6I9Y2: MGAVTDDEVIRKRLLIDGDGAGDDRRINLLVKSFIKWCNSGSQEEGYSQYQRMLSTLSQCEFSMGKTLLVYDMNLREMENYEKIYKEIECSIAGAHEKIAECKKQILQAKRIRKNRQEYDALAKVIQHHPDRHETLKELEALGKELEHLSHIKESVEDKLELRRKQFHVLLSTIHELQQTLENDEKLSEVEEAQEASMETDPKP
UniProt P52888, whole entry, looked up: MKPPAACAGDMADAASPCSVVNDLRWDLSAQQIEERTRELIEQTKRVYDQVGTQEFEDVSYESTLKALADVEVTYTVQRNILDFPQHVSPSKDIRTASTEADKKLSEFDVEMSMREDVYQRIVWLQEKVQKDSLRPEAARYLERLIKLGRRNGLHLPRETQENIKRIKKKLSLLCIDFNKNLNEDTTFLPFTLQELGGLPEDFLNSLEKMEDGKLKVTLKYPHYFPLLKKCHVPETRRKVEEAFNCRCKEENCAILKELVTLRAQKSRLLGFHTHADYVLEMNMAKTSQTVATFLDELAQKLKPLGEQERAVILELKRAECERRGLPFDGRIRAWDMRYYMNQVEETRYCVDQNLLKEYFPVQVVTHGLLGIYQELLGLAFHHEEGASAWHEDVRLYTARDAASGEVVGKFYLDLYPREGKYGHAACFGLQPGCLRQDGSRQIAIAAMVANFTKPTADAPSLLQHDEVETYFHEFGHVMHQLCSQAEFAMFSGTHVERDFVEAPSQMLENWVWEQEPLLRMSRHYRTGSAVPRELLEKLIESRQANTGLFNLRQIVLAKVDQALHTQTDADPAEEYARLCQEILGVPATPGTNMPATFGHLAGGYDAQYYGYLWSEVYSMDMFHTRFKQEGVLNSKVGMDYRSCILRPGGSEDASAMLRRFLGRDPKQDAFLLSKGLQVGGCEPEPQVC
UniProt Q9NU19: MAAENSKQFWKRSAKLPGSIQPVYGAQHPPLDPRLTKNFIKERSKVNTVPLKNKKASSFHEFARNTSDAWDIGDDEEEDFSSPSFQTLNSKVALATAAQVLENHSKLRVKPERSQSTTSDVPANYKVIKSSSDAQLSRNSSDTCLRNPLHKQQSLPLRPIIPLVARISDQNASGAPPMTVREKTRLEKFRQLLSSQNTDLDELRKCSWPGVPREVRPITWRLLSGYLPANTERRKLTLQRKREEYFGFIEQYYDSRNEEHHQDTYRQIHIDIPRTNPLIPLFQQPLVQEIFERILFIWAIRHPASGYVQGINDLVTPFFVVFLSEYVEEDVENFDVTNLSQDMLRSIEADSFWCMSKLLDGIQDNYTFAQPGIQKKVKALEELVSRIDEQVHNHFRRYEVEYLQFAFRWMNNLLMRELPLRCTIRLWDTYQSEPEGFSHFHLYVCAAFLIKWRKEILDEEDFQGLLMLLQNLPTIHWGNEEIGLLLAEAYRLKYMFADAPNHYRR
UniProt Q00059: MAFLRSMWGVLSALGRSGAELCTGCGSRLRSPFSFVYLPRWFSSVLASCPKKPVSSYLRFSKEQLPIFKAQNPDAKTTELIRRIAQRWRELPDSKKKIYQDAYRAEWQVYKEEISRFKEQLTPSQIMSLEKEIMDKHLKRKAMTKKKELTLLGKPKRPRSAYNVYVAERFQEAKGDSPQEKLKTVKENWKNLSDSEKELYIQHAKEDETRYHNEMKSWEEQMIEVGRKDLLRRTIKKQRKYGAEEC
UniProt Q3ZCQ8: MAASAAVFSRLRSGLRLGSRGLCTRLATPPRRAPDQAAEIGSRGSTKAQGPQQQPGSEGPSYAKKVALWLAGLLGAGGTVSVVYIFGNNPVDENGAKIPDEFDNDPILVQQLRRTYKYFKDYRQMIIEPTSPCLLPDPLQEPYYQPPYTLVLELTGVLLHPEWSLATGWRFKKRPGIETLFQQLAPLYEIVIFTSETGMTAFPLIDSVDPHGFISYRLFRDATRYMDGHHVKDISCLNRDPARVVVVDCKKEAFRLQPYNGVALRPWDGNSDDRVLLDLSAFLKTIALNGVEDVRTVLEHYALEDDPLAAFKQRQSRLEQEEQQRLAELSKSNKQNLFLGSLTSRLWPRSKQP
UniProt Q07157: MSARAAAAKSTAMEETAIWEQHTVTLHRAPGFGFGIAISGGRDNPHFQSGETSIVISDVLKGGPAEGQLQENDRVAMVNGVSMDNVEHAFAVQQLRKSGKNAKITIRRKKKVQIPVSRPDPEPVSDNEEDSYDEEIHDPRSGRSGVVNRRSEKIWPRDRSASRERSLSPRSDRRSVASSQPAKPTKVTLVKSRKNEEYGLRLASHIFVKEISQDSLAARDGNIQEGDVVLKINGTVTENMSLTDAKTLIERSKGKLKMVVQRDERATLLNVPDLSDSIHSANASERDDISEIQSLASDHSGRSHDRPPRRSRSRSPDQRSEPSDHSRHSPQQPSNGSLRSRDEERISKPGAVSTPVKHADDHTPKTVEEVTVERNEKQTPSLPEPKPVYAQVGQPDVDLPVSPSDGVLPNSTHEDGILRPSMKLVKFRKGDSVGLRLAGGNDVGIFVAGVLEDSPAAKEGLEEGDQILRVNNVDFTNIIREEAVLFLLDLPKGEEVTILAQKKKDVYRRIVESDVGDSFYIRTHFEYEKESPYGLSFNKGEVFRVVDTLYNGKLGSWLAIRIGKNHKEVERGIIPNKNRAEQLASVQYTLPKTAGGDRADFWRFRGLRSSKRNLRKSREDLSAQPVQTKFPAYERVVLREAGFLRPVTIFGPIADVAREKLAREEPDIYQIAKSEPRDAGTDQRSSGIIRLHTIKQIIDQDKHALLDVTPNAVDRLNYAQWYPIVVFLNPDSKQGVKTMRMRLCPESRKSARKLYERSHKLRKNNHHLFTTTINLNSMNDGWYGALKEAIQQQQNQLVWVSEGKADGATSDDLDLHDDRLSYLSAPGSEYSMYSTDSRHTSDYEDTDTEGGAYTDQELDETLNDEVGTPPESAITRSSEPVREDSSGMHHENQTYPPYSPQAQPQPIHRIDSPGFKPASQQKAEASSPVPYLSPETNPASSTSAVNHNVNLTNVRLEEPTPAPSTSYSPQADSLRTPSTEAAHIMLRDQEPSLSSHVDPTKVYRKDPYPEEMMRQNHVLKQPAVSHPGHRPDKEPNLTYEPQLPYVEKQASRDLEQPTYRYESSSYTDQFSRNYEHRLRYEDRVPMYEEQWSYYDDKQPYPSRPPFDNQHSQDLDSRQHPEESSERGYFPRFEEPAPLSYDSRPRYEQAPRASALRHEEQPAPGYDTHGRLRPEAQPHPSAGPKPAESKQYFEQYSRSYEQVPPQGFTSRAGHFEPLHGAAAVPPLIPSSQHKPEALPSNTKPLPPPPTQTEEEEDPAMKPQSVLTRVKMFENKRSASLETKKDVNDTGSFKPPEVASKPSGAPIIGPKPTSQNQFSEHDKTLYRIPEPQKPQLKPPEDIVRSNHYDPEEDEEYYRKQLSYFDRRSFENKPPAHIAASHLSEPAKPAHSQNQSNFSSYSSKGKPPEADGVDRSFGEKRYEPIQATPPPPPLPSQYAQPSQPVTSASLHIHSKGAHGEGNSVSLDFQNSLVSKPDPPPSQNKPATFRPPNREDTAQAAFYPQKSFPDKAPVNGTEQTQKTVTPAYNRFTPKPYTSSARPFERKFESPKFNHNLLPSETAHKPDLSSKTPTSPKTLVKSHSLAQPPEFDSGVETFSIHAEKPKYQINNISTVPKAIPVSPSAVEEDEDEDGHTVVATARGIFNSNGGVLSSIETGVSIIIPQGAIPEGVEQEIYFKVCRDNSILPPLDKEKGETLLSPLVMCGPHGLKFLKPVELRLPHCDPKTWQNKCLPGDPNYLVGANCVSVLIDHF

crizotinib = compound: C[C@@H](Oc1cc(-c2cnn(C3CCNCC3)c2)cnc1N)c1c(Cl)ccc(F)c1Cl [crizotinib]
Summary of the method: as §1

[2] = compound: C[C@@H]1COCCN1C2=NC(=NC(=C2)C3(CC3)S(=O)(=O)C)C4=C5C=CNC5=CC=C4
Summary of the method: as §1

[3] = compound: C[C@H](C1=CC=C(C=C1)C(=O)NC2=C3C=CNC3=NC=C2)N
Summary of the method: as §1

duvelisib = compound: C[C@H](Nc1ncnc2nc[nH]c12)c1cc2cccc(Cl)c2c(=O)n1-c1ccccc1 [duvelisib]
Summary of the method: as §1

gandotinib = compound: Cc1cc(Nc2cc(CN3CCOCC3)c3nc(C)c(Cc4ccc(Cl)cc4F)n3n2)n[nH]1 [gandotinib]
Summary of the method: as §1

tozasertib = compound: Cc1cc(Nc2cc(N3CCN(C)CC3)nc(Sc3ccc(NC(=O)C4CC4)cc3)n2)n[nH]1 [tozasertib]
Summary of the method: as §1

[4] = compound: Cc1cc(SCc2sc(-c3ccc(C(F)(F)F)cc3)nc2C)ccc1OCC(=O)O
Summary of the method: as §1

doramapimod = compound: Cc1ccc(-n2nc(C(C)(C)C)cc2NC(=O)Nc2ccc(OCCN3CCOCC3)c3ccccc23)cc1 [doramapimod]
Summary of the method: as §1

ispinesib = compound: Cc1ccc(C(=O)N(CCCN)[C@@H](c2nc3cc(Cl)ccc3c(=O)n2Cc2ccccc2)C(C)C)cc1 [ispinesib]
Summary of the method: as §1

bafetinib = compound: Cc1ccc(NC(=O)c2ccc(CN3CC[C@H](N(C)C)C3)c(C(F)(F)F)c2)cc1Nc1nccc(-c2cncnc2)n1 [bafetinib]
Summary of the method: as §1

[5] = compound: Cc1cccc(CC(=O)N2CCc3c2ccc(-c2cn(C)c4ncnc(N)c24)c3F)n1
Summary of the method: as §1

nilotinib = compound: Cc1cn(-c2cc(NC(=O)c3ccc(C)c(Nc4nccc(-c5cccnc5)n4)c3)cc(C(F)(F)F)c2)cn1 [nilotinib]
Summary of the method: as §1

[6] = compound: Cc1nc(Nc2n[nH]c3c2CN(C(=O)N[C@H](CN(C)C)c2ccccc2)C3(C)C)c2sccc2n1
Summary of the method: as §1

dasatinib = compound: Cc1nc(Nc2ncc(C(=O)Nc3c(C)cccc3Cl)s2)cc(N2CCN(CCO)CC2)n1 [dasatinib]
Summary of the method: as §1

[7] = compound: Cc1ncc(-c2ccnc(Nc3ccc(S(C)(=O)=O)cc3)n2)n1C(C)C
Summary of the method: as §1

[8] = compound: Cn1cc(-c2ccc3c(c2)CCN3C(=O)Cc2cccc(C(F)(F)F)c2)c2c(N)ncnc21
Summary of the method: as §1

[9] = compound: Cn1cc(-c2ccc3nnc(C(F)(F)c4ccc5ncccc5c4)n3n2)cn1
Summary of the method: as §1

tipifarnib = compound: Cn1cncc1[C@@](N)(c1ccc(Cl)cc1)c1ccc2c(c1)c(-c1cccc(Cl)c1)cc(=O)n2C [tipifarnib]
Summary of the method: as §1

mubritinib = compound: FC(F)(F)c1ccc(/C=C/c2nc(COc3ccc(CCCCn4ccnn4)cc3)co2)cc1 [mubritinib]
Summary of the method: as §1

Measured: log2 fold change

THOC2 (UniProt Q8NI27)
inactive: [1] -0.033 | crizotinib -0.044 | [2] -0.014 | [3] 0.156 | duvelisib -0.023 | gandotinib -0.042 | tozasertib -0.041 | [4] -0.001 | doramapimod 0.104 | ispinesib -0.157 | bafetinib 0.021 | [5] 0.006 | nilotinib -0.041 | [6] -0.089 | dasatinib -0.032 | [7] -0.023 | [8] -0.081 | [9] -0.049 | tipifarnib 0.08 | mubritinib -0.002

TIMM9 (UniProt Q9Y5J7)
inactive: [1] -0.066 | crizotinib 0.309 | [2] 0.182 | [3] -0.222 | duvelisib 0.108 | gandotinib 0.045 | tozasertib 0.074 | [4] 0.024 | doramapimod 0.029 | ispinesib 0.215 | bafetinib -0.034 | [5] 0.062 | nilotinib -0.002 | [6] 0.004 | dasatinib 0.025 | [7] -0.046 | [8] 0.148 | [9] 0.317 | tipifarnib 0.037 | mubritinib 0.055

TFB1M (UniProt Q8WVM0)
inactive: [1] -0.07 | crizotinib 0.095 | [2] -0.216 | [3] 0.207 | duvelisib 0.004 | gandotinib 0.105 | tozasertib -0.073 | [4] 0.048 | doramapimod 0.11 | ispinesib -0.069 | bafetinib 0.143 | [5] -0.01 | nilotinib 0.037 | [6] 0.089 | dasatinib 0.041 | [7] 0.04 | [8] 0.04 | [9] -0.111 | tipifarnib 0.115 | mubritinib -0.001

THOC3 (UniProt Q96J01)
inactive: [1] 0.001 | crizotinib 0.026 | [2] 0.017 | [3] -0.108 | duvelisib -0.003 | gandotinib -0.036 | tozasertib 0.028 | [4] 0.019 | doramapimod -0.019 | ispinesib -0.044 | bafetinib 0.011 | [5] 0.031 | nilotinib 0.01 | [6] -0.02 | dasatinib -0.008 | [7] -0.025 | [8] 0.044 | [9] 0.024 | tipifarnib -0.057 | mubritinib 0.032

TIMM17A (UniProt Q99595)
inactive: [1] 0.009 | crizotinib 0.026 | [2] -0.011 | [3] -0.084 | duvelisib 0.017 | gandotinib 0.075 | tozasertib -0.01 | [4] -0.067 | doramapimod -0.009 | ispinesib 0.012 | bafetinib -0.005 | [5] -0.053 | nilotinib 0.019 | [6] 0.042 | dasatinib 0.012 | [7] -0.07 | [8] 0.012 | [9] 0.008 | tipifarnib 0.036 | mubritinib 0.061

TICAM2 isoform 2 (UniProt Q86XR7)
inactive: [1] 0.008 | crizotinib 0.013 | [2] 0.013 | [3] -0.081 | duvelisib -0.028 | gandotinib -0.132 | tozasertib 0.034 | [4] 0.055 | doramapimod -0.028 | ispinesib 0.075 | bafetinib -0.044 | [5] 0.009 | nilotinib -0.009 | [6] 0.039 | dasatinib 0.086 | [7] 0.002 | [8] 0.036 | [9] -0.085 | tipifarnib -0.035 | mubritinib 0.002

TIMM23 (UniProt O14925)
inactive: [1] 0 | crizotinib 0 | [2] -0.003 | [3] -0.044 | duvelisib -0.045 | gandotinib -0.076 | tozasertib -0.002 | [4] -0.052 | doramapimod -0.025 | ispinesib 0.086 | bafetinib 0.013 | [5] 0.009 | nilotinib 0.037 | [6] -0.026 | dasatinib 0.033 | [7] 0.005 | [8] 0.021 | [9] -0.015 | tipifarnib 0 | mubritinib 0.035

TBCC (UniProt Q15814)
inactive: [1] -0.018 | crizotinib 0.001 | [2] 0.04 | [3] -0.064 | duvelisib 0.06 | gandotinib -0.071 | tozasertib 0.037 | [4] 0.007 | doramapimod -0.039 | ispinesib 0.045 | bafetinib -0.061 | [5] 0.029 | nilotinib 0.019 | [6] -0.031 | dasatinib -0.02 | [7] -0.008 | [8] 0.092 | [9] 0.035 | tipifarnib 0.014 | mubritinib 0.039

THOC7 (UniProt Q6I9Y2)
inactive: [1] -0.022 | crizotinib -0.004 | [2] 0 | [3] 0.05 | duvelisib 0.014 | gandotinib 0.012 | tozasertib -0.048 | [4] 0.001 | doramapimod 0.049 | ispinesib -0.069 | bafetinib -0.015 | [5] 0.066 | nilotinib 0 | [6] 0.016 | dasatinib 0.03 | [7] -0.049 | [8] -0.014 | [9] -0.078 | tipifarnib 0.098 | mubritinib 0

THOP1 (UniProt P52888)
inactive: [1] -0.003 | crizotinib 0.038 | [2] 0.047 | [3] -0.064 | duvelisib 0.039 | gandotinib 0.012 | tozasertib -0.036 | [4] -0.008 | doramapimod -0.02 | ispinesib 0.068 | bafetinib -0.002 | [5] 0 | nilotinib 0.014 | [6] 0.011 | dasatinib 0 | [7] -0.001 | [8] 0.033 | [9] 0.019 | tipifarnib -0.016 | mubritinib 0.011

TFPI (UniProt P10646)
inactive: [1] -0.013 | crizotinib 0.161 | [2] -0.046 | [3] 0.078 | duvelisib -0.179 | gandotinib -0.028 | tozasertib 0.054 | [4] 0.037 | doramapimod -0.151 | ispinesib 0.155 | bafetinib 0.091 | [5] -0.117 | nilotinib 0.034 | [6] 0.055 | dasatinib 0.134 | [7] -0.062 | [8] -0.066 | [9] -0.031 | mubritinib -0.146

2 consecutive records out of the list so far, for reference:
TFB1M (UniProt Q8WVM0)
inactive: [1] -0.07 | crizotinib 0.095 | [2] -0.216 | [3] 0.207 | duvelisib 0.004 | gandotinib 0.105 | tozasertib -0.073 | [4] 0.048 | doramapimod 0.11 | ispinesib -0.069 | bafetinib 0.143 | [5] -0.01 | nilotinib 0.037 | [6] 0.089 | dasatinib 0.041 | [7] 0.04 | [8] 0.04 | [9] -0.111 | tipifarnib 0.115 | mubritinib -0.001

THOC3 (UniProt Q96J01)
inactive: [1] 0.001 | crizotinib 0.026 | [2] 0.017 | [3] -0.108 | duvelisib -0.003 | gandotinib -0.036 | tozasertib 0.028 | [4] 0.019 | doramapimod -0.019 | ispinesib -0.044 | bafetinib 0.011 | [5] 0.031 | nilotinib 0.01 | [6] -0.02 | dasatinib -0.008 | [7] -0.025 | [8] 0.044 | [9] 0.024 | tipifarnib -0.057 | mubritinib 0.032

Remaining list, next part.

TBC1D22B (UniProt Q9NU19)
inactive: [1] -0.01 | crizotinib -0.147 | [2] -0.02 | [3] 0.013 | duvelisib -0.033 | gandotinib -0.087 | tozasertib 0.032 | [4] -0.011 | doramapimod 0.183 | ispinesib 0.074 | bafetinib 0.016 | [5] 0.027 | nilotinib -0.038 | [6] -0.099 | dasatinib -0.124 | [7] 0.003 | [8] -0.018 | [9] -0.163 | tipifarnib -0.065 | mubritinib 0.002

TFAM (UniProt Q00059)
inactive: [1] -0.071 | crizotinib 0.058 | [2] -0.153 | [3] 0.117 | gandotinib 0.176 | [4] -0.034 | doramapimod 0.022 | ispinesib -0.117 | bafetinib 0.034 | [5] 0.013 | nilotinib -0.025 | [6] 0.023 | dasatinib 0.077 | [7] 0.003 | [8] -0.048 | [9] -0.038 | tipifarnib 0.039 | mubritinib -0.068

THBS4 (UniProt P35443)
inactive: [1] -0.028 | crizotinib 0.163 | [2] 0.079 | [3] 0.082 | duvelisib -0.096 | gandotinib -0.262 | tozasertib -0.079 | [4] -0.273 | doramapimod -0.074 | ispinesib -0.117 | bafetinib -0.178 | [5] 0.559 | nilotinib 0.114 | [6] 0.05 | dasatinib 0.017 | [7] 0.189 | [8] 0.204 | [9] -0.045 | tipifarnib 0.082 | mubritinib -0.154

TIMM50 isoform 2 (UniProt Q3ZCQ8)
inactive: [1] -0.001 | crizotinib 0.039 | [2] 0.066 | [3] -0.007 | duvelisib 0.081 | gandotinib -0.034 | tozasertib -0.005 | [4] 0.026 | doramapimod -0.025 | ispinesib 0.027 | bafetinib -0.02 | [5] -0.042 | nilotinib -0.033 | [6] 0.009 | dasatinib -0.083 | [7] -0.036 | [8] 0.062 | [9] 0.027 | tipifarnib -0.1 | mubritinib -0.012

TJP1 (UniProt Q07157)
inactive: [1] 0.004 | crizotinib -0.016 | [2] 0.044 | [3] -0.06 | gandotinib -0.124 | [4] 0.061 | doramapimod -0.01 | ispinesib 0.026 | bafetinib -0.061 | [5] 0.008 | nilotinib 0.024 | [6] -0.199 | dasatinib -0.092 | [7] -0.037 | [8] -0.028 | [9] -0.02 | tipifarnib -0.025 | mubritinib 0.073

— the supplement of paper PMC10849652
